# PubChem BioAssay AID1259254 – NCATS, 2017
# Test: 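Genome-wide screen for genes that prevent DNA re-replication in cancer cells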 (primary screen)
# System: human HCT116 colorectal cancer cells
# Reagent: single siRNA against human genes
# Timing: 3 days
# Measurement: 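Imaged Hoechst DNA stain sorts each cell into a cycle phase by DNA amount; per plate, G2 fraction set to 0% for non-targeting and 100% for GMNN siRNA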
# Scale: G2 robust z-score and G2 cells, % of GMNN control: higher = more G2 cells, more excess DNA replication
# Call rule: 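An siRNA counts as active if its G2 robust z-score lies at least 5 MADs above the screen median; here such calls match roughly 38% of GMNN control or more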
# Shown is a random part of about 59,000 deposited reagents. Of all reagents, about 1,550 (2.6%) got an active call. 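G2 share is only a proxy for re-replication; each gene was hit by three separate siRNAs, and active genes were retested.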 A number with no mark means an inactive call. The numbers tell different reagents against one gene apart. Not all columns of the deposit are shown. Not stated in the record: the amount of reagent.
Gene,siRNA no.,G2 robust z-score,"G2 cells, % of GMNN control"
PACRG-AS3,1,-1.12,-4.88
PACRG-AS3,2,1.24,11.7
PACRG-AS3,3,1.18,11.3
PADI1,1,-1.15,-5.16
PADI1,2,-0.379,0.3
PADI1,3,2.21,18.5
TM9SF2,1,-0.354,0.475
TM9SF2,2,-0.972,-3.87
TM9SF2,3,0.282,4.95
TDRD5,1,0.104,3.7
TDRD5,2,3.19,25.4
TDRD5,3,0.322,5.23
PPP3CA,1,-0.515,-0.658
PPP3CA,2,-0.311,0.778
PPP3CA,3,-0.524,-0.721
RPS26P31,1,3.71,29.1
RPS26P31,2,4.73,36.2
RPS26P31,3,0.69,7.82
EEFSEC,1,1.06,10.5
EEFSEC,2,2.14,18
EEFSEC,3,0.635,7.43
ZNF277,1,1.5,13.5
ZNF277,2,0.216,4.48
ZNF277,3,0.656,7.58
P2RY13,1,-1.01,-4.15
P2RY13,2,-0.852,-3.02
P2RY13,3,-0.323,0.698
SPINT1,1,1.38,12.7
SPINT1,2,-1.2,-5.49
SPINT1,3,-0.59,-1.18
